# According to paper PMC9314443:
# Results are given in words; binding and its absence hold for the method and conditions named. Binding seen in cells or lysates may run through a third protein. Some results given as binding are weak or reduced against the parent protein; the word gives no strength. Tags and fused reporters may be left off the sequences shown.
# T1: full-length hamster HMGCR followed by three copies of the T7 epitope, HMGCR-T7 (WT) (hamster) (UniProt P00347)
# T1 sequence: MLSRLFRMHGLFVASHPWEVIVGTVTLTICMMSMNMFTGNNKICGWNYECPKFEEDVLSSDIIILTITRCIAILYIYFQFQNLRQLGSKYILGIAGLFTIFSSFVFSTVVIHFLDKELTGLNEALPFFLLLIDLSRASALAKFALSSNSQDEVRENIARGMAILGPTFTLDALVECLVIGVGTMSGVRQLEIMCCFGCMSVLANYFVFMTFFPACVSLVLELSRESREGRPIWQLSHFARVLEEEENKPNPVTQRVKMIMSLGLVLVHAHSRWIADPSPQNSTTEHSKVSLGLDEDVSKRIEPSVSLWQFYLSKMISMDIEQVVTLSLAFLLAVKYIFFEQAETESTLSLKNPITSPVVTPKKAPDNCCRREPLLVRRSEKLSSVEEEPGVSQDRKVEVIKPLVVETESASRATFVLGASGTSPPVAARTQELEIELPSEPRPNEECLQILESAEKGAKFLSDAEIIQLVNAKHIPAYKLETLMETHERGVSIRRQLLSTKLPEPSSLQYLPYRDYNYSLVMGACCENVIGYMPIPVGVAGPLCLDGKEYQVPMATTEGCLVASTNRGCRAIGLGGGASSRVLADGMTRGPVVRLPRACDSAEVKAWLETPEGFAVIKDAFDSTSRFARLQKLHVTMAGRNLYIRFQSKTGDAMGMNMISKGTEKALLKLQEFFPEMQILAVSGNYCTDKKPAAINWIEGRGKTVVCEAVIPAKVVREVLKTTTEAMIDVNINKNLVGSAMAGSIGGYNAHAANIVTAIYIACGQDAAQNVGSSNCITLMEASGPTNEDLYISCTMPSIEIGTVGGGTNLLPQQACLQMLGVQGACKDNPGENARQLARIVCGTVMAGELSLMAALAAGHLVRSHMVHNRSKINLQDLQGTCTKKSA
# B1: human Insig-1 followed by six copies of the Myc epitope (Insig-1-Myc) (protein, UniProt O15503 1-277)
# chain: MPRLHDHFWSCSCAHSARRRGPPRASAAGLAAKVGEMINVSVSGPSLLAAHGAPDADPAPRGRSAAMSGPEPGSPYPNTWHHRLLQRSLVLFSVGVVLALVLNLLQIQRNVTLFPEEVIATIFSSAWWVPPCCGTAAAVVGLLYPCIDSHLGEPHKFKREWASVMRCIAVFVGINHASAKLDFANNVQLSLTLAALSLGLWWTFDRSRSGLGLGITIAFLATLITQFLVYNGVYQYTSPDFLYIRSWLPCIFFSGGVTVGNIGRQLAMGVPEKPHSD
# Molecular target: T1, full-length hamster HMGCR followed by three copies of the T7 epitope, HMGCR-T7 (WT) (hamster)
# Experiment: co-IP; transfected HMGCR-deficient UT-2 (CHO) cells depleted of sterols, MG-132 for 1 h, then with or without 1 µg/ml 25-HC for 30 min; lysed in PBS with 1% digitonin, precipitated with anti-T7-coupled beads; immunoblot with anti-T7 and IgG-9E10
binder,measurement,value
B1,binding,binds
